These are yes or no findings as the source states them, for the method shown. Binding seen in cells or lysates may run through a third protein. Some binding calls cover weakened binding; strength is not graded here. Sequences can lack the tags named with a protein.
Assays:
[1] = biological target: T1, GST-PIF4 (PHYTOCHROME-… FACTOR 4) (Arabidopsis thaliana) (UniProt Q8W2F3); test: pull-down
T1 sequence: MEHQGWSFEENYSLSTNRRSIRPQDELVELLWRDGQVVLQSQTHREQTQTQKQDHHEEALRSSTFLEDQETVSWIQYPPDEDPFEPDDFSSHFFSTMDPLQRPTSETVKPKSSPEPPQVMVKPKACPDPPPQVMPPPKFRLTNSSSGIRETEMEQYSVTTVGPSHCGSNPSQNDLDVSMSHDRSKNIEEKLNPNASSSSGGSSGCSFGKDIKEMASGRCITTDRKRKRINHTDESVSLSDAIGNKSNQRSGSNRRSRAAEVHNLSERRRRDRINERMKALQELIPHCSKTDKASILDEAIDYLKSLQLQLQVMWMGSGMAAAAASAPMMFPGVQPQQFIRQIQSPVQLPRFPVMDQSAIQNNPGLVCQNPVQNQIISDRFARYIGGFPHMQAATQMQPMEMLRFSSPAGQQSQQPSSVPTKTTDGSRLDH

By UniProt entry, the sequences of proteins in these tests, tags left out.
UniProt Q9SR02: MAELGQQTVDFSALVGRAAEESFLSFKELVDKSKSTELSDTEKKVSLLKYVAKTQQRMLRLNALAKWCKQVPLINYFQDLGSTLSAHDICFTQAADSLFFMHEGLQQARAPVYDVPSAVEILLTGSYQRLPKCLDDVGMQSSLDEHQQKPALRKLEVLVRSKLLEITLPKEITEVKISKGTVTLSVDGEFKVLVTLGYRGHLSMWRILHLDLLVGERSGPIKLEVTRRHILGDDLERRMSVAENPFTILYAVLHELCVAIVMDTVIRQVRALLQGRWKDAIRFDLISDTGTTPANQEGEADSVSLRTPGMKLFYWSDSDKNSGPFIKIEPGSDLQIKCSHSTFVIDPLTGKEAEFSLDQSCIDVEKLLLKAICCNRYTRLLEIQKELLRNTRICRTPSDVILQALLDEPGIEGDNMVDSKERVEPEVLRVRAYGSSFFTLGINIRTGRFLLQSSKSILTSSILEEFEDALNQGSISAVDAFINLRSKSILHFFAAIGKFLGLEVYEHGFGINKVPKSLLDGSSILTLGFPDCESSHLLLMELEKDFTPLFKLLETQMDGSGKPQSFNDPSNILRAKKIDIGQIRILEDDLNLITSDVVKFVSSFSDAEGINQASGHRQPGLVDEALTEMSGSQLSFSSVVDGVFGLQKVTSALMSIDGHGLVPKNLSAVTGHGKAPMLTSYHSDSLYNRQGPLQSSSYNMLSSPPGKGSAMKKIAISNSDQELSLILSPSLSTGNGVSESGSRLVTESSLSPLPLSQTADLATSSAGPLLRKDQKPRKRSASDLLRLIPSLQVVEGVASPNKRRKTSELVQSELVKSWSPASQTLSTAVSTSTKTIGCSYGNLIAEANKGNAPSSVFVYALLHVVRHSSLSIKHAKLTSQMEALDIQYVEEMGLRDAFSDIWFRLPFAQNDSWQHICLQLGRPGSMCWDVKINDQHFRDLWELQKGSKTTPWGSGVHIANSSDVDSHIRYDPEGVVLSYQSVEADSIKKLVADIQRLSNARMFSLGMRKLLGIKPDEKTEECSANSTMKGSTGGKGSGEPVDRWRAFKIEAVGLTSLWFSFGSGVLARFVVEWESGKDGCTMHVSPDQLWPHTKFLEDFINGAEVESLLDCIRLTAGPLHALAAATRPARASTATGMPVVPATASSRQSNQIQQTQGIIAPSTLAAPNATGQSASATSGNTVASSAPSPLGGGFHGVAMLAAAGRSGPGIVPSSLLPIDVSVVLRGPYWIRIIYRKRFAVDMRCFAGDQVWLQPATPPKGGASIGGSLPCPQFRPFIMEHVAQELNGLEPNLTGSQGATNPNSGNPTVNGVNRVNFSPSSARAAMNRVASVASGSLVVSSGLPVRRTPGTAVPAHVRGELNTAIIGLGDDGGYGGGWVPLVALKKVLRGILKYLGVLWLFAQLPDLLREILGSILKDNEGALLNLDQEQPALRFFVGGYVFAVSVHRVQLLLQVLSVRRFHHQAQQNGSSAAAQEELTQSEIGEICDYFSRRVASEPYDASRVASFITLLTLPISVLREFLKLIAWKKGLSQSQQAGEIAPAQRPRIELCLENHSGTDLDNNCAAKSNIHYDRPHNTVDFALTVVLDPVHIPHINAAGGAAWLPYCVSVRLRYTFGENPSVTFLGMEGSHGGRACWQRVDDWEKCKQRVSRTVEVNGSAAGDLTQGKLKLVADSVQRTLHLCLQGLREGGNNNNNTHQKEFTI

[2] = biological target: T2, PIF4 fused with NmVenus210 (Arabidopsis thaliana) (UniProt Q8W2F3); test: split reporter
T2 sequence: T1 sequence

binding [1] | binding [2] | Substance
binds |  | HA-MED14 (from UniProt Q9SR02 1-1703)
 | binds | MED14 fused with cVenus210 (from UniProt Q9SR02 1-1703)

— paper doi:10.1101/2022.03.02.482654
